Measured values reported in PubChem BioAssay AID330 (DTP/NCI, 2004).
The list does not hold the whole screen: it is rich in T/C values a quarter to a half above the control, in often repeated tests (any T/C) and in doses without a T/C. Further doses and runs are listed elsewhere. T/C is the treated group as % of the vehicle group. Some doses have a count of surviving animals in place of a T/C: the source holds a T/C of zero for them, seemingly a mark for toxic or unscored doses. Some survivor counts are full or nearly so, which does not show that the dose was tolerated: survival well below the control is almost never listed, so the zero probably covers shortened survival too. Survivors were counted at the toxicity check, usually on the fifth day, unless a day is given; later deaths do not show. Schedule codes are those of the source, taken here to give the interval after Q, in days (D) or hours (H), and the number of doses after X. Some doses were run more than once; the results are listed from low to high. Where survival is the endpoint, this PubChem deposit counts one and a half times the control or more as active, and values a quarter to a half above the control carry no call in these data; other NCI protocols may use other cut-offs. Some T/C values are followed by the survivors on the day toxicity was checked, most often the fifth; where none is given, no animal had died by that day.

Tested on: P388 leukemia ip, CD2F1 mice, survival T/C
Assay: NCI In Vivo Anticancer Drug Screen. Data for tumor model P388 Leukemia (intraperitoneal) in CD2F1 (CDF1) mice
Details: T/C endpoint: median survival time, higher T/C = longer survival
[1] = dose: 50.0 mg/kg/injection, schedule: Q01DX009 (ip), vehicle: saline
[2] = dose: 100.0 mg/kg/injection, schedule: Q01DX009 (ip), vehicle: saline
[3] = dose: 200.0 mg/kg/injection, schedule: Q01DX009 (ip), vehicle: saline
[4] = dose: 50.0 mg/kg/injection, schedule: Q01DX009 (ip), vehicle: Klucel (hydroxypropylcellulose) (HPC)
[5] = dose: 100.0 mg/kg/injection, schedule: Q01DX009 (ip), vehicle: Klucel (hydroxypropylcellulose) (HPC)
[6] = dose: 200.0 mg/kg/injection, schedule: Q01DX009 (ip), vehicle: saline with Tween-80

Structure (SMILES): COc1c2c(cc3c1-c1ccc(OC)c(=O)cc1C(NC(C)=O)CC3)OCO2 (stereo unspecified)
- survivor count (dose: 1.88 mg/kg/injection, schedule: Q01DX009 (ip), vehicle: distilled water + Tween-80): 6 of 6
- survivor count (dose: 3.75 mg/kg/injection, schedule: Q01DX009 (ip), vehicle: distilled water + Tween-80): 2 of 6
- survivor count (dose: 7.5 mg/kg/injection, schedule: Q01DX009 (ip), vehicle: distilled water + Tween-80): 0 of 6
- survivor count (dose: 15.0 mg/kg/injection, schedule: Q01DX009 (ip), vehicle: distilled water + Tween-80): 0 of 6 and 6 of 6
- survivor count (dose: 30.0 mg/kg/injection, schedule: Q01DX009 (ip), vehicle: distilled water + Tween-80): 1 of 6
- survivor count (dose: 60.0 mg/kg/injection, schedule: Q01DX009 (ip), vehicle: distilled water + Tween-80): 0 of 6

Structure (SMILES): [Cl][Sn]([c]1ccccc1)[c]1ccccc1
- survivor count (dose: 6.0 mg/kg/injection, schedule: Q03HX015 (ip), vehicle: saline): 5 of 10
- T/C (dose: 6.25 mg/kg/injection, schedule: Q01DX009 (ip), vehicle: saline with Tween-80): 128 % of control
- T/C (dose: 6.25 mg/kg/injection, schedule: Q01DX009 (ip), vehicle: saline): 132 and 135 % of control
- T/C (dose: 8.0 mg/kg/injection, schedule: Q01DX005 (ip), vehicle: saline): 147 % of control
- survivor count (dose: 9.0 mg/kg/injection, schedule: Q03HX015 (ip), vehicle: saline): 0 of 10
- survivor count (dose: 12.5 mg/kg/injection, schedule: Q01DX009 (ip), vehicle: saline with Tween-80): 1 of 6
- T/C (dose: 12.5 mg/kg/injection, schedule: Q01DX009 (ip), vehicle: saline): 144 % of control
- survivor count (dose: 13.3 mg/kg/injection, schedule: Q03HX015 (ip), vehicle: saline): 0 of 10
- survivor count (dose: 18.0 mg/kg/injection, schedule: Q01DX005 (ip), vehicle: saline): 2 of 10
- survivor count (dose: 20.0 mg/kg/injection, schedule: Q03HX015 (ip), vehicle: saline): 0 of 10
- survivor count (dose: 25.0 mg/kg/injection, schedule: Q01DX009 (ip), vehicle: saline with Tween-80): 0 of 6
- T/C (dose: 25.0 mg/kg/injection, schedule: Q01DX009 (ip), vehicle: saline): 144 % of control [4 of 6 alive]
- T/C (dose: 25.0 mg/kg/injection, schedule: Q04DX003 (ip), vehicle: saline): 132 % of control
- survivor count (dose: 27.0 mg/kg/injection, schedule: Q01DX005 (ip), vehicle: saline): 0 of 10
- survivor count (dose: 30.0 mg/kg/injection, schedule: Q03HX015 (ip), vehicle: saline): 0 of 10
- survivor count (dose: 40.0 mg/kg/injection, schedule: Q01DX005 (ip), vehicle: saline): 0 of 10
- survivor count (dose: 45.0 mg/kg/injection, schedule: Q03HX015 (ip), vehicle: saline): 0 of 10
- survivor count (dose: 50.0 mg/kg/injection, schedule: Q01DX009 (ip), vehicle: saline with Tween-80): 0 of 6
- survivor count [1]: 5 of 6
- T/C (dose: 50.0 mg/kg/injection, schedule: Q04DX003 (ip), vehicle: saline): 127 % of control [5 of 6 alive]
- survivor count (dose: 60.0 mg/kg/injection, schedule: Q01DX005 (ip), vehicle: saline): 0 of 10
- survivor count (dose: 90.0 mg/kg/injection, schedule: Q01DX005 (ip), vehicle: saline): 0 of 10
- survivor count [2]: 6 of 6
- survivor count (dose: 135.0 mg/kg/injection, schedule: Q01DX005 (ip), vehicle: saline): 0 of 10
- survivor count [3]: 2 of 6

Structure (SMILES): CC(=O)c1cccc(NC2C(N)C(NC(=O)N(C)C)(C(C)O)C(C)(O)C2(O)COC(=O)c2c(C)cccc2O)c1 (stereo unspecified)
- T/C (dose: 0.25 mg/kg/injection, schedule: Q01DX009 (ip), vehicle: other): 134 % of control
- T/C (dose: 0.37 mg/kg/injection, schedule: Q01DX009 (ip), vehicle: acid diluted with saline): 145 % of control
- T/C (dose: 0.75 mg/kg/injection, schedule: Q01DX009 (ip), vehicle: acid diluted with saline): 131 % of control
- survivor count (dose: 2.0 mg/kg/injection, schedule: Q01DX009 (ip), vehicle: other): 5 of 6
- survivor count (dose: 3.0 mg/kg/injection, schedule: Q01DX009 (ip), vehicle: acid diluted with saline): 5 of 6
- survivor count (dose: 4.0 mg/kg/injection, schedule: Q01DX009 (ip), vehicle: other): 3 of 6

Structure (SMILES): Cc1ccc(S(=O)(=O)N(Cl)Cl)cc1
- survivor count [4]: 3 of 6

Structure (SMILES): OC1C(CCl)OC(OC2(CCl)OC(CCl)C(O)C2O)C(O)C1O (stereo unspecified)
- survivor count [4]: 6 of 6
- survivor count [5]: 6 of 6
- survivor count (dose: 200.0 mg/kg/injection, schedule: Q01DX009 (ip), vehicle: Klucel (hydroxypropylcellulose) (HPC)): 6 of 6

Structure (SMILES): Clc1ccc(Cc2nc3ccccc3s2)cc1
- survivor count (dose: 240.0 mg/kg/injection, schedule: Q01DX005 (ip), vehicle: saline with Tween-80): 3 of 6

Structure (SMILES): COc1cc(C(=O)O)cc(C(=O)O)c1
- survivor count [1]: 3 of 6
- survivor count [2]: 0 of 6
- survivor count [3]: 0 of 6

Structure (SMILES): [N-]=[N+]=C1N=CN=C1c1ncn[nH]1
- T/C (dose: 3.12 mg/kg/injection, schedule: Q01DX009 (ip), vehicle: Klucel (hydroxypropylcellulose) (HPC)): 126 % of control
- T/C (dose: 6.25 mg/kg/injection, schedule: Q01DX009 (ip), vehicle: Klucel (hydroxypropylcellulose) (HPC)): 132 and 136 % of control
- T/C (dose: 12.5 mg/kg/injection, schedule: Q01DX009 (ip), vehicle: Klucel (hydroxypropylcellulose) (HPC)): 136 % of control
- T/C (dose: 25.0 mg/kg/injection, schedule: Q01DX009 (ip), vehicle: Klucel (hydroxypropylcellulose) (HPC)): 136 % of control [5 of 6 alive]
- T/C [4]: 136 % of control [5 of 6 alive]
- survivor count [5]: 0 of 6 and 1 of 6

Structure (SMILES): CC(=O)OC1OC(=O)C(C)(C(C)=O)C1C (stereo unspecified)
- survivor count (dose: 50.0 mg/kg/injection, schedule: Q01DX005 (ip), vehicle: distilled water + alcohol): 5 of 6
- survivor count (dose: 100.0 mg/kg/injection, schedule: Q01DX005 (ip), vehicle: distilled water + alcohol): 2 of 6
- survivor count (dose: 200.0 mg/kg/injection, schedule: Q01DX005 (ip), vehicle: distilled water + alcohol): 0 of 6

Structure (SMILES): CC(C)Nc1nc(Cl)nc(Cl)n1
- survivor count (dose: 200.0 mg/kg/injection, schedule: Q01DX005 (ip), vehicle: Klucel (hydroxypropylcellulose) (HPC)): 4 of 5

Structure (SMILES): Cc1ccc(C[N+](C)(C)C)cc1
- survivor count (dose: 100.0 mg/kg/injection, schedule: Q01DX009 (ip), vehicle: saline with Tween-80): 1 of 6
- survivor count [6]: 0 of 6

Structure (SMILES): COC(=O)c1ccccc1NC(Cc1ccccc1)=NC(C)(C)C
- survivor count [6]: 6 of 6

Structure (SMILES): CCN(CC)CCNC(=O)c1nn(-c2ccccc2)c2c1CCc1ccccc1-2
- survivor count (dose: 200.0 mg/kg/injection, schedule: Q04DX003 (ip), vehicle: saline): 1 of 6
- survivor count (dose: 400.0 mg/kg/injection, schedule: Q04DX003 (ip), vehicle: saline): 0 of 6

Structure (SMILES): Cc1ccc(S(=O)(=O)N=S(C)(=O)CCCl)cc1 (stereo unspecified)
- survivor count (dose: 200.0 mg/kg/injection, schedule: Q04DX003 (ip), vehicle: suspension in saline): 1 of 6
- survivor count (dose: 400.0 mg/kg/injection, schedule: Q04DX003 (ip), vehicle: suspension in saline): 0 of 6

Structure (SMILES): CCC/C(=N\NC(N)=NC)c1ccc2c(c1)Cc1cc(/C(CCC)=N/NC(N)=NC)ccc1-2
- survivor count (dose: 12.5 mg/kg/injection, schedule: Q04DX002 (ip), vehicle: saline with Tween-80): 0 of 6

Structure (SMILES): CCCCCC(CN(C)C)C(O)/C=C/c1ccc(Cl)cc1Cl (stereo unspecified)
- survivor count [1]: 4 of 6
- survivor count [2]: 0 of 6
- survivor count [3]: 0 of 6

Structure (SMILES): C[N+]1(C)N=C([O-])N(c2ccccc2F)C1=O
- survivor count (dose: 400.0 mg/kg/injection, schedule: Q04DX003 (ip), vehicle: Klucel (hydroxypropylcellulose) (HPC)): 5 of 6

Structure (SMILES): CNC(=O)OCc1c(COC(=O)NC)c(-c2cccs2)n2c1CCC2
- T/C (dose: 25.0 mg/kg/injection, schedule: Q01DX005 (ip), vehicle: saline with Tween-80): 133 % of control
- T/C (dose: 50.0 mg/kg/injection, schedule: Q01DX005 (ip), vehicle: saline with Tween-80): 127 % of control [5 of 6 alive]
- survivor count (dose: 100.0 mg/kg/injection, schedule: Q01DX005 (ip), vehicle: saline with Tween-80): 5 of 6 and 6 of 6
- survivor count (dose: 200.0 mg/kg/injection, schedule: Q01DX005 (ip), vehicle: saline with Tween-80): 1 of 6
